Source: patent US8518938B2, “c-MET protein kinase inhibitors” (Vertex Pharmaceuticals Incorporated, priority 2008, dated 2013)
Some of these results come from one statement about several compounds together.

By UniProt entry, the sequences of proteins in these tests, tags left out. Residues count along the entry.
UniProt P08581, 25-1390: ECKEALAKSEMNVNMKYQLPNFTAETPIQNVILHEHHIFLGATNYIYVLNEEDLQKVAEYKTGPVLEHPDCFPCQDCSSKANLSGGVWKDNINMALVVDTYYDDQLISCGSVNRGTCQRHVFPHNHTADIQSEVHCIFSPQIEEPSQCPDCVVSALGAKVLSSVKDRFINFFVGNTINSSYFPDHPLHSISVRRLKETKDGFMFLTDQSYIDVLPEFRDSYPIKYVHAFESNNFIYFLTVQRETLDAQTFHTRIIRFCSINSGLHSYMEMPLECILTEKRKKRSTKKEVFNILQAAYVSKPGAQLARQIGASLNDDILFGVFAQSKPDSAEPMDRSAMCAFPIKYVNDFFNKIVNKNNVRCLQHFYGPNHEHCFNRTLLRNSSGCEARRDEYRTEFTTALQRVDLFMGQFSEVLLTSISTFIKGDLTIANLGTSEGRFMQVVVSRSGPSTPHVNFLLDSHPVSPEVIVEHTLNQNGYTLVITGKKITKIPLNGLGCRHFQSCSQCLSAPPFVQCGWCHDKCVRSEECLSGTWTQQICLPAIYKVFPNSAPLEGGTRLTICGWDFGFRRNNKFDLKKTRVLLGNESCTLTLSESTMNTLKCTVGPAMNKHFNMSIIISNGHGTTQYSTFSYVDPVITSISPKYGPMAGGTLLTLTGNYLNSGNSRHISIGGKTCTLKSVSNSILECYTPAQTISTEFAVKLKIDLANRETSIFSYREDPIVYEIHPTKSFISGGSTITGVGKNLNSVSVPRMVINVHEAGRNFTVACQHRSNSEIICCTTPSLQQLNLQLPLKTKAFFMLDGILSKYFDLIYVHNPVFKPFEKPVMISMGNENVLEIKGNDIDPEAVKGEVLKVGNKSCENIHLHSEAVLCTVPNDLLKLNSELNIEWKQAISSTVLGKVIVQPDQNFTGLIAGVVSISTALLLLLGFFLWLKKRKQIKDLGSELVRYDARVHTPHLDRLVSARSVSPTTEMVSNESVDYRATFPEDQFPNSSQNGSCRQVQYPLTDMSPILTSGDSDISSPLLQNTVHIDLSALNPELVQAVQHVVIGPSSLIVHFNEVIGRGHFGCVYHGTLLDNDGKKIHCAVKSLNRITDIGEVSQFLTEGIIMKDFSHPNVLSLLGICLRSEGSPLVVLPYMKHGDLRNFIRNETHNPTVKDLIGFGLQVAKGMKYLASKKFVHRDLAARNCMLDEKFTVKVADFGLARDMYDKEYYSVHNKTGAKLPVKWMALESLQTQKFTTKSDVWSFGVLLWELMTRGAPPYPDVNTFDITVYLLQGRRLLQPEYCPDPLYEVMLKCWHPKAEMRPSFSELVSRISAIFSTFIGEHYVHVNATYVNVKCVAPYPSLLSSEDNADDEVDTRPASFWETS

Molecular target: T1, c-Met (Homo sapiens, UniProt P08581)
T1 construct: is a human gastric carcinoma known to overexpress c-Met, which is constitutively active; host or cells: Snu5 human gastric carcinoma cells transduced with a 6xAP1-luciferase-PEST reporter (Snu5-AP1-Luc-Pest)
Assay: Inhibition of c-Met activity in Snu5 gastric carcinoma cells (Snu5-AP1-Luc-Pest luciferase signal)
Format: cell-based
Conditions: luciferase signal (Steady-Glo), 6 hours incubation

`Nc1ncc(-c2ccsc2)cc1-c1nnnn1-c1ccc(OC2CN3CCC2CC3)c(F)c1F` (stereo not shown) [Compound 121] was tested, and the IC50 was ≤ 500 nM.
